# According to paper PMC7819943, “Rice protein-binding microarrays: a tool to detect cis-acting elements near promoter regions in rice”:
# The list shows a part of the results.
# Target: T1, OsSMF1 (Oryza sativa, UniProt Q6ZLB0 1-436)
# T1 sequence: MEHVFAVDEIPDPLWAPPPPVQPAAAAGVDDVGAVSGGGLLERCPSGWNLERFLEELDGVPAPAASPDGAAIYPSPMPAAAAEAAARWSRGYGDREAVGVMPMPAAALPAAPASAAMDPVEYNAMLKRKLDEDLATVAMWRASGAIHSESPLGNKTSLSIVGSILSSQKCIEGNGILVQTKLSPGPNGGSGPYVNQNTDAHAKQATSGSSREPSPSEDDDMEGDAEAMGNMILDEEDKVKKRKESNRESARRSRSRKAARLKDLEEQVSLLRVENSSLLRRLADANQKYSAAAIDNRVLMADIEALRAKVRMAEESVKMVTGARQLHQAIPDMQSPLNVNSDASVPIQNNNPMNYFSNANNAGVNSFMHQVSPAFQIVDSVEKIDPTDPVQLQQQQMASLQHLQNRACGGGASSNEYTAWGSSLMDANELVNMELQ
# Experiment: protein-binding microarray (RPBM); PBS, 2% BSA, 51.3 ng/ul salmon testes DNA, 50 uM zinc acetate, 200 nM TF, 25 C, 1 h; high values mean tight binding
# Settings: protein: recombinant; tags: N-terminal polyhistidine and DsRed monomer fusion (pET32a); chain copies: 2; label: CyDye5-dUTP incorporated in the synthesized complementary strand; 3' TTTTT single-stranded linker to array surface; dsDNA, one strand shown
# Procedure, shortened: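 The binding signal is fluorescence intensity per feature, in arbitrary units, read on an Axon 4000B scanner. Polyhistidine- and DsRed-tagged transcription factors (N-terminal fusions) from E. coli BL21-CodonPlus were purified on Ni–NTA and applied at 200 nM for 1 h at 25 °C to a double-stranded, BSA-blocked custom Agilent array in buffer with 50 µM zinc acetate.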
row,Sequence,binding signal
1,AGCCGTGCGACAACCAGGTCAGCCGAACTCCGCCCTCATTCGGAGTCACCTAGTGCAG,3260 fluorescence intensity (a.u.)
2,CGATTCCACCTATTCAGAAATCACGCGATGACTACGCCGCCGGAGTCACCTAGTGCAG,3330 fluorescence intensity (a.u.)
3,ATCGCGTTGGCTGGCCTGGCATCCATCGGCAGTGGCAGTGCGGAGTCACCTAGTGCAG,3260 fluorescence intensity (a.u.)
4,GCATGACACGTCTGCGCTGAGTCAGTCTGGTGGTCCTAATCGGAGTCACCTAGTGCAG,16700 fluorescence intensity (a.u.)
5,CGTTGTTACCACCTCATTTTACGTGGAACATTTAATCTTTCGGAGTCACCTAGTGCAG,5000 fluorescence intensity (a.u.)
6,TCAAGGCGCCGCGAGCACGTCACCGCGAACCGCATCCATCCGGAGTCACCTAGTGCAG,3790 fluorescence intensity (a.u.)
7,ATCCTCCGCCACCGCCGCCCGCGCCGATCCCCACCCATCGCGGAGTCACCTAGTGCAG,3410 fluorescence intensity (a.u.)
8,TTGTTGCAACAACGCATGTGGTGGGACACGTGGTGGGAACCGGAGTCACCTAGTGCAG,5500 fluorescence intensity (a.u.)
9,ATTGGGAGCGCGGATGTGTGCGTGGCGTGAAATCTCCGACCGGAGTCACCTAGTGCAG,4670 fluorescence intensity (a.u.)
10,CCAAAGTTATTATTAGTGTTTCTTCTATCATTTCATCTCCCGGAGTCACCTAGTGCAG,3570 fluorescence intensity (a.u.)
11,ATGTTGACTCGTTTGCCTGTGTTCCTCTTGCTGCTATTCACGGAGTCACCTAGTGCAG,3230 fluorescence intensity (a.u.)
12,CCAAGTGGTCCGGTCCGGTGATGCAGGCCAGCCCAACGATCGGAGTCACCTAGTGCAG,3140 fluorescence intensity (a.u.)
13,TGCAGTGCAAGGCCCTGGAGCTCTGCTTCAACGTGGCGCTCGGAGTCACCTAGTGCAG,4770 fluorescence intensity (a.u.)
14,AGGCAACAAGAGTAGGTTCCATTTCATATCATCACTAGGACGGAGTCACCTAGTGCAG,4010 fluorescence intensity (a.u.)
15,CGTCCTCCTCGTCATCGACGCCCCAATCGGCACCGCCTCCCGGAGTCACCTAGTGCAG,4860 fluorescence intensity (a.u.)
16,TGAATCTGTTGCATCTGTAGCAATCATGCGACTAGGTACACGGAGTCACCTAGTGCAG,3350 fluorescence intensity (a.u.)
17,TATTAGACTAGGTCAACGAGCCATGTCAGCATAGGATCAACGGAGTCACCTAGTGCAG,10400 fluorescence intensity (a.u.)
18,GGCGACTGCACGTGTCCTCCATGGCCGCGGCGCTGGGTTGCGGAGTCACCTAGTGCAG,3430 fluorescence intensity (a.u.)
19,GCAAACAAAATATACCTGCCAAGTCAACTTCACGGCCGGACGGAGTCACCTAGTGCAG,4280 fluorescence intensity (a.u.)
20,CCGGGCCCATATCACCGACAACGACGATGTCGAAGCAACGCGGAGTCACCTAGTGCAG,4100 fluorescence intensity (a.u.)
21,GGAACGGGAAGGCAGGTCGGTCATACACGTAAGATAGGACCGGAGTCACCTAGTGCAG,6430 fluorescence intensity (a.u.)

row,Sequence,binding signal
1,TTTGTGAGTGTGCGTGTATAGTGATGCGTATGCGTATGTGCGGAGTCACCTAGTGCAG,5560 fluorescence intensity (a.u.)
2,GATGTAGTATTATTAGTAGATCCGATTGATTACGTGTGAGCGGAGTCACCTAGTGCAG,4940 fluorescence intensity (a.u.)
3,CGTTCCTAGTTCCTCGCCGTCGCCAACATCGATAGCAGAGCGGAGTCACCTAGTGCAG,3190 fluorescence intensity (a.u.)
4,ATCTAACGTACCACGTAAGCATCACATGTGATAAAATCGTCGGAGTCACCTAGTGCAG,7220 fluorescence intensity (a.u.)
5,CGCCGCGGAACGGCACGTCGGCGGTGCTGCGGCTGACGCACGGAGTCACCTAGTGCAG,4200 fluorescence intensity (a.u.)
6,GCCACCGCCGCGGGCGCGGCCCCGGCCCCGGCCCCGGCCGCGGAGTCACCTAGTGCAG,3390 fluorescence intensity (a.u.)
7,TCGTGAGGGGCCGTCACCGTCAGCCCGTCCAGTTTCTGGTCGGAGTCACCTAGTGCAG,4460 fluorescence intensity (a.u.)
8,GATTTTGATGCCTGCTCCCCGATGTGTCCATCGGGTGTCGCGGAGTCACCTAGTGCAG,4230 fluorescence intensity (a.u.)
9,AAACACTATGGTGACCACGGCGCGAAGACCTCGGTGATGACGGAGTCACCTAGTGCAG,3140 fluorescence intensity (a.u.)
10,GCTTCCCACGCGTCGCTTCGCTATCGCGGCCGTCCCCGCACGGAGTCACCTAGTGCAG,5120 fluorescence intensity (a.u.)
11,ACAGTAGCACCGGAAAGCTGCATGTGAAGTCTAGTCAACGCGGAGTCACCTAGTGCAG,4250 fluorescence intensity (a.u.)
12,CGCGGTACTCCCTCGCCACCGTGTACGTGACGTCCGCGGCCGGAGTCACCTAGTGCAG,7160 fluorescence intensity (a.u.)
13,AGAAGGCCCACGCTAAACAGCCCACGTAATAACCGCACGGCGGAGTCACCTAGTGCAG,5110 fluorescence intensity (a.u.)
14,TCGATAAATGTTTCATTTCATTTTAGTACACGCATTGGCGCGGAGTCACCTAGTGCAG,3300 fluorescence intensity (a.u.)
15,GAGTGTGCAGAGGGAGACAAAGGTGATCTGGCAGTGGATACGGAGTCACCTAGTGCAG,4550 fluorescence intensity (a.u.)
16,ATCCACCATCCATCCACGTCGCGACGCGTCCAACTCCATCCGGAGTCACCTAGTGCAG,4810 fluorescence intensity (a.u.)
17,TCTTTCGCTGCGTTGCGTCATCAGCTCTGAAACTCTGAAACGGAGTCACCTAGTGCAG,10100 fluorescence intensity (a.u.)
18,GGAGGAAAATGGCCCTGATCAGCATCAGGGCAAGTACTATCGGAGTCACCTAGTGCAG,3200 fluorescence intensity (a.u.)
19,ATATTGCTTTGGGATCAAAAGGTGACTCAGTTTATACCAGCGGAGTCACCTAGTGCAG,3650 fluorescence intensity (a.u.)
20,CCCTGCCCACCTGCCACGTGTCTCTACCAATAAATCACCTCGGAGTCACCTAGTGCAG,11600 fluorescence intensity (a.u.)
21,CGCATGTAGAATCTAACTAGTTAAAGATTAAAATTTTGAACGGAGTCACCTAGTGCAG,29100 fluorescence intensity (a.u.)

# Looked up above.
# In binding signal, TCGTGAGGGGCCGTCACCGTCAGCCCGTCCAGTTTCTGGTCGGAGTCACCTAGTGCAG has the entry 4460 fluorescence intensity (a.u.)
# In binding signal, CGTTCCTAGTTCCTCGCCGTCGCCAACATCGATAGCAGAGCGGAGTCACCTAGTGCAG has the entry 3190 fluorescence intensity (a.u.)
# In binding signal, CCCTGCCCACCTGCCACGTGTCTCTACCAATAAATCACCTCGGAGTCACCTAGTGCAG has the entry 11600 fluorescence intensity (a.u.)
